Results on 1 molecule are retold here after patent publication US10588946B2, “Peptide for promoting bone formation or inhibiting bone resorption and use thereof” (SEOUL NATIONAL UNIVERSITY R&DB FOUNDATION, priority 2015, dated 2020).

Protein sequences, listed by entry. Tags and fused reporters are not part of them.
UniProt P05556: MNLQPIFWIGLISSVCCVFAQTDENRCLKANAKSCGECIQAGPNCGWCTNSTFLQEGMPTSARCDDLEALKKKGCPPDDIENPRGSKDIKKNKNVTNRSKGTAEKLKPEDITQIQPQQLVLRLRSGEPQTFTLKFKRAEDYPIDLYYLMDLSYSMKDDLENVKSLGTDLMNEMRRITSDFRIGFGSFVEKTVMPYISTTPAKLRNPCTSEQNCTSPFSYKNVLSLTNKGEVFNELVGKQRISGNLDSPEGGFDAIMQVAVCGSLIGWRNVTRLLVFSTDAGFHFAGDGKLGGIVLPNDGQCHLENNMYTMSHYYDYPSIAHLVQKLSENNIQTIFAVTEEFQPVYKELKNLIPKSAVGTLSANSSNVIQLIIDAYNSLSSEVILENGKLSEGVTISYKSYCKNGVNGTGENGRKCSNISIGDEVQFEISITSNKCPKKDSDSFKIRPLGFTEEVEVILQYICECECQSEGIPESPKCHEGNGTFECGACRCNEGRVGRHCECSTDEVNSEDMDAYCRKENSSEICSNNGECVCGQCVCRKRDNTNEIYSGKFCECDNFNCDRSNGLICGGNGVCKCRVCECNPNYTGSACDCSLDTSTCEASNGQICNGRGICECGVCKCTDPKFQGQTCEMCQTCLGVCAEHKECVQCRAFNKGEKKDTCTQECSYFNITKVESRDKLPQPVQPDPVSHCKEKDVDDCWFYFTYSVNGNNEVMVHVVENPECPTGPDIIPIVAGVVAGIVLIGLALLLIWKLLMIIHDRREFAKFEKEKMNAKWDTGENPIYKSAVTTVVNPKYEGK

No constants are given. Whether binding was seen depends on the method and setting. Binding seen in cells or lysates may run through a third protein. Some binding calls cover weakened binding; strength is not graded here.

The target of this experiment is β1 integrin (Homo sapiens, UniProt P05556). The experiment in a line: pulldown with streptavidin beads from human osteogenic cells or HOS cells cultured 3 h on biotinylated VnP-16-coated dishes, immunoblot for β1 integrin. A general note: Immunoblotting shows a protein as a band on a membrane.

As to RVYFFKGKQYWE (biotin conjugated (position not given); C-terminal amide) [biotinylated VnP-16 peptide], the binding entry is given as “binds”.
